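Whole-parasite assay of Trypanosoma brucei over 72 hours; the read-out is not stated. Concentration: 10 µM. Higher reads as stronger inhibition (inferred: compounds with an IC50 in retests scored well above the rest). Values scatter widely below zero; nearly all retest evidence comes from the higher of the two concentrations used. Size under these conditions: about 2,700 compounds, about 14 of them at 50% or above in at least one test.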

Results are given as percent effect.
The controls that fix the scale are not given in the record; negative values are as filed.
Compounds were drawn at random from those tested, without regard to their results.

{"smiles": "COCCc1noc(CN2CCOC(Cn3cc(C)cn3)C2)n1", "stereo": "centres undefined", "effect": -40.97}
{"smiles": "Cc1cnn(CC2CCCN2C(=O)c2ccc(Cl)cc2F)c1", "stereo": "centres undefined", "effect": -60.11}
{"smiles": "NC(=O)Cn1cc(NC(=O)N2CCCC(O)C2)cn1", "stereo": "centres undefined", "effect": -79.25}
{"smiles": "N#Cc1ccsc1C(=O)N1CCCN(Cc2cscn2)CC1", "effect": -57.18}
{"smiles": "CCCc1nc(CN2CCCN(Cc3nccn3C)CC2)no1", "effect": -25.77}
{"smiles": "CSC(C)C(=O)N(C)CC(=O)Nc1ccc(Br)cn1", "stereo": "centres undefined", "effect": -24.07}
{"smiles": "Cn1ccc(C(=O)NCc2ccc(N3CCCCC3)nc2)cc1=O", "effect": -1.068}
{"smiles": "CCn1cc(CN2CCCN(C(=O)c3cc(C)no3)CC2)cn1", "effect": -38.06}
{"smiles": "CC(C)c1nc(CN2CCN(CC(O)c3ccccc3)CC2)no1", "stereo": "centres undefined", "effect": -29.76}
{"smiles": "O=C(Nc1cccc(CNCc2cccnc2)c1)C1CCCC1", "effect": -33.02}
{"smiles": "Cc1nnc(NC(=O)NCc2ccc(F)cc2)s1", "effect": -39.72}
{"smiles": "CCc1nc(C2CCCN(C(=O)c3cccc(C(N)=O)c3)C2)no1", "stereo": "centres undefined", "effect": -44.03}
{"smiles": "Cc1cccc(C(=O)N2CCC(c3n[nH]c(C4CC4)n3)CC2)c1", "effect": -41.1}
{"smiles": "Cc1cc(C)n(C2CN(CCC(=O)NC3CCCCC3)C2)n1", "effect": -6.871}
{"smiles": "NC(=O)C1CCN(C(=O)NCCNc2ccccn2)CC1", "effect": -51.17}
{"smiles": "CCCc1n[nH]c(C2CN(C(=O)CCc3cscn3)CCO2)n1", "stereo": "centres undefined", "effect": 10.96}
{"smiles": "COCCCNC(=O)c1c(C)noc1C(C)C", "effect": -36.76}
{"smiles": "Cc1cnn(CCNCc2nnc(-c3occc3C)o2)c1", "effect": -38.66}
{"smiles": "CCc1nc(C2CCCN(C(=O)c3ccc(Cl)cc3)C2)no1", "stereo": "centres undefined", "effect": -49.59}
{"smiles": "O=C(NCCCNc1ccc(C(F)(F)F)cn1)c1ccc(F)cc1Br", "effect": -47.91}
{"smiles": "Cn1ccnc1CN1CCN(Cc2noc(C3CC3)n2)CC1", "effect": -11.61}
{"smiles": "Cc1cnn(CC2CN(Cc3nc4ccccc4n3C)CCO2)c1", "stereo": "centres undefined", "effect": -59.71}
{"smiles": "Cc1nc(C)n(C2CCCN(C(=O)c3ccc4[nH]nnc4c3)C2)n1", "stereo": "centres undefined", "effect": -33.93}
{"smiles": "N#Cc1ccc(CNCCn2cccn2)c(F)c1", "effect": -60.79}
{"smiles": "COCc1ccccc1C(=O)N1CCCC1Cn1nc(C)cc1C", "stereo": "centres undefined", "effect": -43.57}
{"smiles": "Cc1nc(C)n(CC2CCCN2Cc2cn3ccccc3n2)n1", "stereo": "centres undefined", "effect": -13.6}
{"smiles": "CCc1nc(C2CCCN(C(=O)c3ccncc3)C2)no1", "stereo": "centres undefined", "effect": -60.52}
{"smiles": "Cc1csc(N2CCCN(C(=O)c3ccoc3C)CC2)n1", "effect": -9.987}
{"smiles": "O=C(CCc1ccncc1)NCc1csc(Br)c1", "effect": -60.3}
{"smiles": "c1ccc2nc(N3CCOC(Cn4cccn4)C3)cnc2c1", "stereo": "centres undefined", "effect": -1.543}
{"smiles": "CCN(Cc1ccc2c(c1)OCO2)S(=O)(=O)N(C)C", "effect": -52.03}
{"smiles": "Cc1nc(C)n(CC2CCCN2CCC(=O)N2CCCCC2)n1", "stereo": "centres undefined", "effect": -45.69}
{"smiles": "CSCc1ccc(CNC2CCCN(c3ccc(C)nn3)C2)o1", "stereo": "centres undefined", "effect": -50.1}
{"smiles": "Cn1cc(Cl)cc1C(=O)N1CCCN(Cc2ccccc2)CC1", "effect": -42.98}
{"smiles": "O=C(NCc1ccnc(-n2cccn2)c1)C1CC(=O)N(CC2CC2)C1", "stereo": "centres undefined", "effect": -43.87}
{"smiles": "CCn1ccnc1CN1CCN(CC(O)c2ccco2)CC1", "stereo": "centres undefined", "effect": 2.935}
{"smiles": "COc1ccc(C)cc1C(=O)NC(CC(=O)O)c1cccs1", "stereo": "centres undefined", "effect": -16.36}
{"smiles": "CC(NC(=O)NCCCn1cncn1)c1ccc(C(F)(F)F)cc1", "stereo": "centres undefined", "effect": -61.23}
{"smiles": "O=C(CN1CCCC1Cn1cccn1)NCCC1=CCCCC1", "stereo": "centres undefined", "effect": -1.261}
{"smiles": "Cc1ccsc1C(=O)N1CCN(Cc2cscn2)CC1", "effect": -40.51}
{"smiles": "CCOc1ncccc1CNC(=O)Nc1ccccc1", "effect": -18.84}

Some entries from above, unchanged:

| SMILES | effect |
|---|---|
| `CC(NC(=O)NCCCn1cncn1)c1ccc(C(F)(F)F)cc1` (centres undefined) | -61.23% |
| `CSCc1ccc(CNC2CCCN(c3ccc(C)nn3)C2)o1` (centres undefined) | -50.1% |

Data taken from ChEMBL document CHEMBL3988442, “University of Dundee, Small-Polar-MMV Screening Library” (2021).